The values that follow come from PMC6044906.

Sequences of proteins named here, by UniProt entry; tags and fusion partners are left off.
UniProt Q14318: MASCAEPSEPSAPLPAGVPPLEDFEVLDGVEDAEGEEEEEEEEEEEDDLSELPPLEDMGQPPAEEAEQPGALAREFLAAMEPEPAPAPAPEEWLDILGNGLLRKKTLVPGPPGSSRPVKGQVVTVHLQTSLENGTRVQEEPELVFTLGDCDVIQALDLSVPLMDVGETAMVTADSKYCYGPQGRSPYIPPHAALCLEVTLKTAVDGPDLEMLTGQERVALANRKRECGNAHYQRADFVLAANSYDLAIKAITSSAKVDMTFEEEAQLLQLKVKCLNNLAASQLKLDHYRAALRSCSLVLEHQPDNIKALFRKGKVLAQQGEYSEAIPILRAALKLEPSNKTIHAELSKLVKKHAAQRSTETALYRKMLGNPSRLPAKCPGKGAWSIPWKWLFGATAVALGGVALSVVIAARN
UniProt Q8TE73: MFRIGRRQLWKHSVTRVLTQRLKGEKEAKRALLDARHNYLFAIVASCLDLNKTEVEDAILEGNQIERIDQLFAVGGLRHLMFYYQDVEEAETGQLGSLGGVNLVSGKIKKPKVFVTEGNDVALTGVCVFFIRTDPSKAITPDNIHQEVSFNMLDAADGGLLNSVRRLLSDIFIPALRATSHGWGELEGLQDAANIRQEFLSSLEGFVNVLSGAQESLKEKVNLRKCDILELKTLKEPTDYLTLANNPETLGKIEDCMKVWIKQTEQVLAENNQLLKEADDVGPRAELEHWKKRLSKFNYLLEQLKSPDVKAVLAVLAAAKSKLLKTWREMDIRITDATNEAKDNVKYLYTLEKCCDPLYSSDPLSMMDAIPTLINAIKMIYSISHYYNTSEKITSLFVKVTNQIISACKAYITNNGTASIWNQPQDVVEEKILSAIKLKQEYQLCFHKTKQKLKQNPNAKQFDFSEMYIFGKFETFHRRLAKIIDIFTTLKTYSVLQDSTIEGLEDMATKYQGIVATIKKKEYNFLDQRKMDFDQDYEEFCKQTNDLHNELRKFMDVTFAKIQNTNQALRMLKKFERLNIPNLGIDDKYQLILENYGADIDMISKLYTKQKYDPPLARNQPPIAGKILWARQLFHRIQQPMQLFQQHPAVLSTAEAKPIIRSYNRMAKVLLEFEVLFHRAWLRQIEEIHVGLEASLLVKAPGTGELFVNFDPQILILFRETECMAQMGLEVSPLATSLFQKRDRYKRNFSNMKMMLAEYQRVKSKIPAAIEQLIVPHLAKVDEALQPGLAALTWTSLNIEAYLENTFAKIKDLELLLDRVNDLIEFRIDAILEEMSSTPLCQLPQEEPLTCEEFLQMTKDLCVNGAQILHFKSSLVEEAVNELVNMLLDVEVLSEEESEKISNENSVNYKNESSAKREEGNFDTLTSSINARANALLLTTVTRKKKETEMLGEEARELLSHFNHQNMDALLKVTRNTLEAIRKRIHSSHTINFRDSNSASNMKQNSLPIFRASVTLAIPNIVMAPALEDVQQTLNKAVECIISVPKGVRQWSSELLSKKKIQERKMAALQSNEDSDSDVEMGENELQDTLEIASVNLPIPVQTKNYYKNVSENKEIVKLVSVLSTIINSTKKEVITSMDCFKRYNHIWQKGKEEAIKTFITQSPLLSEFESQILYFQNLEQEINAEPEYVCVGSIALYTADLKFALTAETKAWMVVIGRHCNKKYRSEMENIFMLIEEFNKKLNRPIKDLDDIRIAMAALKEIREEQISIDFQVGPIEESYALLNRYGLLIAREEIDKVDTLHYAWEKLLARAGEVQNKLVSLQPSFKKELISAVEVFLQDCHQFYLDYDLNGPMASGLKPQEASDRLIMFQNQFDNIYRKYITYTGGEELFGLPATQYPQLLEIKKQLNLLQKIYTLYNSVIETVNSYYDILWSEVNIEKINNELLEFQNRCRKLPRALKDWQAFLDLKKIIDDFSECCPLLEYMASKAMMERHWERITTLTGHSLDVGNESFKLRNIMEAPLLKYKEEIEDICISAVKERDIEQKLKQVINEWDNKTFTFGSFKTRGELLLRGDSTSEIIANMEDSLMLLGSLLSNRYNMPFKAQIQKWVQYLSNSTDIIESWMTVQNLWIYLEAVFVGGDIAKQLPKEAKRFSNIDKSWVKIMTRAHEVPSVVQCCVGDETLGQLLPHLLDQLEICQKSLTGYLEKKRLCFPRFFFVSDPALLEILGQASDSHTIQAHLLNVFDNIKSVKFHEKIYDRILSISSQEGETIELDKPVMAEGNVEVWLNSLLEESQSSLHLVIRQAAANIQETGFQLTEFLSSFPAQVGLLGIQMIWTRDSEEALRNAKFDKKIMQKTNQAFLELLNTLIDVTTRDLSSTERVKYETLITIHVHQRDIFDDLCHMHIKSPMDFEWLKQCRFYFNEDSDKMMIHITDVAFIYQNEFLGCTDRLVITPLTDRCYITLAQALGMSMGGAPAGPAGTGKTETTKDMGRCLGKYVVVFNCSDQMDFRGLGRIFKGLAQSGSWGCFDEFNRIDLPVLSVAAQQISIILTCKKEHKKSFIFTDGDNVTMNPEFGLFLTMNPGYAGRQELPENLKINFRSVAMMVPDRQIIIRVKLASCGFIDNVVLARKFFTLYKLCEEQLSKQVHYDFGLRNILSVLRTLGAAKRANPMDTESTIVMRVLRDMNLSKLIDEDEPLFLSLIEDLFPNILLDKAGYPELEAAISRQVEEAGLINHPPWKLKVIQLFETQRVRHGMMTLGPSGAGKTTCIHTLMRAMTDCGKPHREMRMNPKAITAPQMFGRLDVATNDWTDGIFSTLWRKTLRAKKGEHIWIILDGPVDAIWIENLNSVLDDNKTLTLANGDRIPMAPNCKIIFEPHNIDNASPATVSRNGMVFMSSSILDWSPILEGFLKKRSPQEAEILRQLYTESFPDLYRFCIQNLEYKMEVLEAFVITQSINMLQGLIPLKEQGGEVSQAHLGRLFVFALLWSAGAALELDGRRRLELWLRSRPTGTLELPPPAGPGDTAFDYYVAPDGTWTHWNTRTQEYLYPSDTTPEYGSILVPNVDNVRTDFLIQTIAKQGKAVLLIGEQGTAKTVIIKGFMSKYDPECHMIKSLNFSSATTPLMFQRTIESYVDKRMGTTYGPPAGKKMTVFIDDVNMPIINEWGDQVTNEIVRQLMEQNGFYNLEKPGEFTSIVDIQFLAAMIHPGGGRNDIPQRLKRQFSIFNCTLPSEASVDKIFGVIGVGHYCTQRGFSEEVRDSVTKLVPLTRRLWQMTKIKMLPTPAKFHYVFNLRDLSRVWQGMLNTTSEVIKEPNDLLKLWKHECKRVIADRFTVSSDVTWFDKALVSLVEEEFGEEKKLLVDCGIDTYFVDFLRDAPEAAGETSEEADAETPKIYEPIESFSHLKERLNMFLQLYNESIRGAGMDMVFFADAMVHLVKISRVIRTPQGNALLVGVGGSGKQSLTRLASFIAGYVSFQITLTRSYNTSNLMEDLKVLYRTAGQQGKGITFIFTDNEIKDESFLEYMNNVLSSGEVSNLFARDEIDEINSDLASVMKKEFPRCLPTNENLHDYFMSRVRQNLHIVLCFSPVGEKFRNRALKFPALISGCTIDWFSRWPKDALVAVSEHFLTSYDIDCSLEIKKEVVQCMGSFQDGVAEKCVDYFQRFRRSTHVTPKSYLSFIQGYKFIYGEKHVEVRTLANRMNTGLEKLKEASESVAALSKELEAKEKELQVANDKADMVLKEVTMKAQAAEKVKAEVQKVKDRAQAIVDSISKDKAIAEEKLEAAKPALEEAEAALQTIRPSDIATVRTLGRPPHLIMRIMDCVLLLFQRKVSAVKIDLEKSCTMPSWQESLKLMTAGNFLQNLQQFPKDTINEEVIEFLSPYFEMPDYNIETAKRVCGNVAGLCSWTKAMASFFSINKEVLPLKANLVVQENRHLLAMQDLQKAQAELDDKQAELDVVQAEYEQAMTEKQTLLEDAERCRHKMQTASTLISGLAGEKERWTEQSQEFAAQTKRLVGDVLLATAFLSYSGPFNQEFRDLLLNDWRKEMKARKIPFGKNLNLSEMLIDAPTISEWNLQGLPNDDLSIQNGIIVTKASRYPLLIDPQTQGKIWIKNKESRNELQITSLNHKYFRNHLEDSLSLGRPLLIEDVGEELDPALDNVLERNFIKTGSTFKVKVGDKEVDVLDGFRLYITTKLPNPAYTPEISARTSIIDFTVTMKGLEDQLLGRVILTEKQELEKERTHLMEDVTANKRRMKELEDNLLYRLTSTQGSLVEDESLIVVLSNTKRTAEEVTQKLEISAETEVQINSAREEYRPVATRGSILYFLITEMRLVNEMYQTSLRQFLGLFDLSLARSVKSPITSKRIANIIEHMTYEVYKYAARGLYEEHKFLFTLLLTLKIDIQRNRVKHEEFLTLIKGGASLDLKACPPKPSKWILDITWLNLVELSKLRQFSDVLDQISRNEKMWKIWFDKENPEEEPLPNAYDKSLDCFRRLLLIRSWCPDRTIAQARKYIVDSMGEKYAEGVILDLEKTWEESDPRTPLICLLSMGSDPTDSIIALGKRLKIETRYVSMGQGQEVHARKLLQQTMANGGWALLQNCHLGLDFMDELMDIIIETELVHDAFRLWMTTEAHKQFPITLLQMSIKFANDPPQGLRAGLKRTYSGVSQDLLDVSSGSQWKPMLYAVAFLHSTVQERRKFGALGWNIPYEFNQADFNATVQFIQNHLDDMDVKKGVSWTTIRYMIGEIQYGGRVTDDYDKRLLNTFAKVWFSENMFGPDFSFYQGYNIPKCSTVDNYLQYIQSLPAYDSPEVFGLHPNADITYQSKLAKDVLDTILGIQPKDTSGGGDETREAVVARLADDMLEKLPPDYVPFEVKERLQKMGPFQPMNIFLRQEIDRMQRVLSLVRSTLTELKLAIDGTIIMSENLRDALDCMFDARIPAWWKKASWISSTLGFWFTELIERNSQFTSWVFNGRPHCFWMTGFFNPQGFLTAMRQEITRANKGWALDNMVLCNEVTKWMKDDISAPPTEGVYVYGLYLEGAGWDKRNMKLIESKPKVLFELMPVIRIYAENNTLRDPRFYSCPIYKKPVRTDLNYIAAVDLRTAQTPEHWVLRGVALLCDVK
UniProt O75800: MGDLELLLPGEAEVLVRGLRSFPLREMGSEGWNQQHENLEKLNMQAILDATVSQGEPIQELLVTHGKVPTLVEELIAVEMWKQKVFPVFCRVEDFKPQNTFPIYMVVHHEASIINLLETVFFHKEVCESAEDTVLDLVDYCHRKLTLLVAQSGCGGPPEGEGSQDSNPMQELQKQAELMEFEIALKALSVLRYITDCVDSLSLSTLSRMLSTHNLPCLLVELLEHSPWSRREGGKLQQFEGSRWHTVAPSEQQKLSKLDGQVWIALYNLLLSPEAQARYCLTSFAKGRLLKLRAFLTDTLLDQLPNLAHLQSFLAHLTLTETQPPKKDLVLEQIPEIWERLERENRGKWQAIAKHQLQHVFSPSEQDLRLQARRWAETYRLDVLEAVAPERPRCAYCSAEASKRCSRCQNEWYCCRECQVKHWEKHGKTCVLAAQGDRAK

Results are given in words; binding and its absence hold for the method and conditions named. Binding seen in cells or lysates may run through a third protein. Some entries that bind do so weakly or less than the wild type.

For assay [1], the target named is T1, DNAI2 (human (endogenous in nasal epithelial cells)) (UniProt Q9GZS0).
T1 sequence: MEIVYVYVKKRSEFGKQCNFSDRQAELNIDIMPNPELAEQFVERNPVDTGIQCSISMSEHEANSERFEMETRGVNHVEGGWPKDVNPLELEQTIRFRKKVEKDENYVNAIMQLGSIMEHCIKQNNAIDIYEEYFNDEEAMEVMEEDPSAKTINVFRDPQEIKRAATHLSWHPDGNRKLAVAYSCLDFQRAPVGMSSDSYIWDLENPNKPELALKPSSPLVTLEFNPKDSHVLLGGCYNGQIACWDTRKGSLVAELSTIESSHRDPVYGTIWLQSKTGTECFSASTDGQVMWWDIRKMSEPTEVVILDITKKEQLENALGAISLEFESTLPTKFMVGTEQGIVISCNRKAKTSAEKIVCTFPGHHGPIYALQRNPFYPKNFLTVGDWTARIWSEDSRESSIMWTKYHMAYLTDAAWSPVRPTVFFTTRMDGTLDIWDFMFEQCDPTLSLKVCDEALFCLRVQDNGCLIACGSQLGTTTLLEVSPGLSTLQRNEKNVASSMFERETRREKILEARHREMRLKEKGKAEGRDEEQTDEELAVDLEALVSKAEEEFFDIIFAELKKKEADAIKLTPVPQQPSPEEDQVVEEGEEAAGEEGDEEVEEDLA
The experiment in a line: proximity ligation; in situ PLA (Duolink) on PFA-fixed, permeabilised nasal brush epithelial cells of healthy human donors and of P7 control and Zmynd10-/- mice; antibody pairs DNAI2 + DNAH5 and DNAI2 + DNAH9; single-antibody control without signal; fewer foci, only cytoplasmic, in Zmynd10 mutants.

The target in assay [2] is T2, DNAI1 (human (endogenous in tracheal epithelial cultures)) (UniProt Q9UI46).
T2 sequence: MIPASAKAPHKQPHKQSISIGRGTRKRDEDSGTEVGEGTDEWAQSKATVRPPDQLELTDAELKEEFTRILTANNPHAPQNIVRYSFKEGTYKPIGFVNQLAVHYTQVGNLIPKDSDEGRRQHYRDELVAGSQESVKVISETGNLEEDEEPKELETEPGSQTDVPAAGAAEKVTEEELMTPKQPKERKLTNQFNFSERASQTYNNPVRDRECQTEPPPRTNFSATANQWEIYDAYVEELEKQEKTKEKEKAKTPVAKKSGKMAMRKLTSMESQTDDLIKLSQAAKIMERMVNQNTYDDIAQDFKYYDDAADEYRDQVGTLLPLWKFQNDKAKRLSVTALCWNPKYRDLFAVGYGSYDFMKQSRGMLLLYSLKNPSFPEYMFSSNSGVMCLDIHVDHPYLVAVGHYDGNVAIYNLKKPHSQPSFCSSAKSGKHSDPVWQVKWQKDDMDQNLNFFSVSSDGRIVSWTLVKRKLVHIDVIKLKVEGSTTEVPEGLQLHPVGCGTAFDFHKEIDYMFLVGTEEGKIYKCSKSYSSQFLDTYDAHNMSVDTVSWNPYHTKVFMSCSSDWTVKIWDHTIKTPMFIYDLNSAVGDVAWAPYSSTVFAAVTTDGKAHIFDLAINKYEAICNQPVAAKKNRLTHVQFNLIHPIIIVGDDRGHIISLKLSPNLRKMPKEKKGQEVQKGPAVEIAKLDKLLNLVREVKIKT
The experiment in a line: co-IP; endogenous FKBP8 and DNAI1 immunoprecipitated from lysates of healthy human donor tracheal epithelial cultures (MucilAir, D17 ALI, immature cells), Protein G magnetic beads, immunoblot for DNAH5 and ZMYND10.

The target in assay [3] is FKBP8 (human (endogenous in tracheal epithelial cultures, HEK293, RPE-1)) (UniProt Q14318). The assay is described as above.
Assay [4] concerns the target T3, DNAI2 (mouse (endogenous in testes, oviduct, trachea, nasal epithelium)) (UniProt A2AC93).
T3 sequence: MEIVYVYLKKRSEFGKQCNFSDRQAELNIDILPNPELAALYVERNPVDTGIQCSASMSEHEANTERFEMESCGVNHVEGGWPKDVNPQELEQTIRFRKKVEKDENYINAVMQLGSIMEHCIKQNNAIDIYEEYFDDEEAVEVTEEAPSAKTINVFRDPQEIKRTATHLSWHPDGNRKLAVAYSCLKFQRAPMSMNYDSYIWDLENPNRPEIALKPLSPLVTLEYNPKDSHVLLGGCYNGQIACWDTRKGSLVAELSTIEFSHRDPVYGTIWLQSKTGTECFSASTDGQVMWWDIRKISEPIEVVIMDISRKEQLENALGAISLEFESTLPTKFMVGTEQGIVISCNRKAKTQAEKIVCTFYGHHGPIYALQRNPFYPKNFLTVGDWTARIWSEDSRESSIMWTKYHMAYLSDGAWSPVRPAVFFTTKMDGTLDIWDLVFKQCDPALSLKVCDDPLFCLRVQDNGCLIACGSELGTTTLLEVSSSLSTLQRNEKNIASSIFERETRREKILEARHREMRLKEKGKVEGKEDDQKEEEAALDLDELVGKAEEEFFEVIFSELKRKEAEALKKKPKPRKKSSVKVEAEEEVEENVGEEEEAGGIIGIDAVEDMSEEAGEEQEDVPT
The assay can be described thus: proximity ligation; in situ PLA (Duolink) on PFA-fixed, permeabilised nasal brush epithelial cells of healthy human donors and of P7 control and Zmynd10-/- mice; antibody pairs DNAI2 + DNAH5 and DNAI2 + DNAH9; single-antibody control without signal; fewer foci, only cytoplasmic, in Zmynd10 mutants.

Assay [5] deals with T3, DNAI2 (mouse (endogenous in testes, oviduct, trachea, nasal epithelium)). The assay can be described thus: co-IP; endogenous DNAI2 immunoprecipitated from mouse tissue extracts (testes P26, oviduct P7, trachea P7 and P90) of wild type and Zmynd10-/- animals, mild lysis buffer, Protein G magnetic beads, immunoblot for DNAI1 and DNAH5; DNAH5 co-precipitation 0.47 and 0.56 fold reduction in mutant P7 oviduct and trachea. A general note: A western blot detects proteins with antibodies after separation by electrophoresis.

For the substance DNAH5 (from UniProt Q8TE73 1-4624), the binding result in assay [1], in assay [2] and in assay [3] was “binds” each time. Consider DNAH5 (from UniProt Q8VHE6 1-4621), for which the binding entry in assay [4] and in assay [5] was “binds” in each case.

In the case of DNAH9 (from UniProt B1AR51 1-4484), the binding entry in assay [4] is “binds”. As to FKBP8 (from UniProt Q14318 1-412), the binding entry in assay [2] is “no binding”. As for ZMYND10 (from UniProt O75800 1-440), the binding result in assay [3] is recorded as “binds”.
